Patent US20240301031A1
No constants are given. Whether binding was seen depends on the method and setting. Some entries that bind do so weakly or less than the wild type.

Target: cynomolgus monkey BAFF (BAF-CM412B, Kactus) (cynomolgus monkey)
Test: SPR (Biacore)

TACI-Mab1 (from UniProt P0DOX7 1-214)
binding: binds
